This is an account of results in the supplement of paper PMC10849652.

Sequences of proteins named here, by UniProt entry; tags and fusion partners are left off. A change or cut given only in a name is not applied to a line headed by its entry.
UniProt Q12788: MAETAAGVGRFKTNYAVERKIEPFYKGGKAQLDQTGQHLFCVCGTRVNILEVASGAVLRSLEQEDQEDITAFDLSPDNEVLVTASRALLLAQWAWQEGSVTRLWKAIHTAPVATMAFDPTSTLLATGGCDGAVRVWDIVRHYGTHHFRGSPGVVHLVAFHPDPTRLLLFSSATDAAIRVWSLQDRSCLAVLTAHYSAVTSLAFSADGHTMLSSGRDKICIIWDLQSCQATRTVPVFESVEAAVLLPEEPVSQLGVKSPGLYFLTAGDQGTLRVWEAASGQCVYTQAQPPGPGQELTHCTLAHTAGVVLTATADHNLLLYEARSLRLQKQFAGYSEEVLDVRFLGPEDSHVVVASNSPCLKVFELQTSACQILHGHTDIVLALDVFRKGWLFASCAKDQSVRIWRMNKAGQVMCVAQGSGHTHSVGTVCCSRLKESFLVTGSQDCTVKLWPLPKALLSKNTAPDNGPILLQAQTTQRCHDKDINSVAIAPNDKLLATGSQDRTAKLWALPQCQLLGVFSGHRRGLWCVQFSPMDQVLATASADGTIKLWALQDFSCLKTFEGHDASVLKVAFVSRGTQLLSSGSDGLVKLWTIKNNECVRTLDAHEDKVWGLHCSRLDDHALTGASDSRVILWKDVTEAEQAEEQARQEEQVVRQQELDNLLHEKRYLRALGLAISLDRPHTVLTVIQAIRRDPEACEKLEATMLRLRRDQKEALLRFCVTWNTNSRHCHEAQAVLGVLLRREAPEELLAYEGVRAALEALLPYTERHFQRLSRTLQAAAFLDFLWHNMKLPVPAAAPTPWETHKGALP
UniProt Q9Y6I9: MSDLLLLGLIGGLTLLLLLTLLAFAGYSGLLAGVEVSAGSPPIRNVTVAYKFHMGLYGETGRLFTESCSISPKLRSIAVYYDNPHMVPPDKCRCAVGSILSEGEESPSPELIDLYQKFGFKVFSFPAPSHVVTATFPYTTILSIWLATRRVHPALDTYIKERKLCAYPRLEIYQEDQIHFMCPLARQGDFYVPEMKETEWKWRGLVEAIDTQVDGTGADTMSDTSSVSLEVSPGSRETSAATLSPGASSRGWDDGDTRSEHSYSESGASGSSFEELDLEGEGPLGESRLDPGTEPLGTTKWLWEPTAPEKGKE
UniProt Q9H2K8: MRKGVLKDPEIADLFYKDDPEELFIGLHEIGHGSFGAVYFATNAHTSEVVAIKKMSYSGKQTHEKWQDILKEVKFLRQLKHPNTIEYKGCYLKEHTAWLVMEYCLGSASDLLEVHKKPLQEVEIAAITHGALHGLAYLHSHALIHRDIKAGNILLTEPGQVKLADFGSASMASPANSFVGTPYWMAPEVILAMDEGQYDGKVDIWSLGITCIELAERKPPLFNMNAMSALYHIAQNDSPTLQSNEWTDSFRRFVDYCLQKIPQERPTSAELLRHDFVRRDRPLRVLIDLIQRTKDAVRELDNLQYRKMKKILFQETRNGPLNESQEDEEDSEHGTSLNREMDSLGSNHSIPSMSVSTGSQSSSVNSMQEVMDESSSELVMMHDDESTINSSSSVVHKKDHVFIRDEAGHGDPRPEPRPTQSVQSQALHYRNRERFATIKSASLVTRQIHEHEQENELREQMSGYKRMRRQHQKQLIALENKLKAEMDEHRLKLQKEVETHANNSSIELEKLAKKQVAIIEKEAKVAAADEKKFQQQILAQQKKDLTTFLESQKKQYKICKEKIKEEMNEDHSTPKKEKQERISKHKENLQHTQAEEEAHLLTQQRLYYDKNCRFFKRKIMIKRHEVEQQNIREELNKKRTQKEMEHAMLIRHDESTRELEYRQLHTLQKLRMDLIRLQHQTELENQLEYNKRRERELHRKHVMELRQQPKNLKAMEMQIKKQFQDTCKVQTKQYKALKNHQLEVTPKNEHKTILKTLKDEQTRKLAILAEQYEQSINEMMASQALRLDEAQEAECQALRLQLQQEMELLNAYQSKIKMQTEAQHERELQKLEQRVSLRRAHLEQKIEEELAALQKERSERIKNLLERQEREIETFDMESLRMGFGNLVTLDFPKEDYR
UniProt B5MCY1: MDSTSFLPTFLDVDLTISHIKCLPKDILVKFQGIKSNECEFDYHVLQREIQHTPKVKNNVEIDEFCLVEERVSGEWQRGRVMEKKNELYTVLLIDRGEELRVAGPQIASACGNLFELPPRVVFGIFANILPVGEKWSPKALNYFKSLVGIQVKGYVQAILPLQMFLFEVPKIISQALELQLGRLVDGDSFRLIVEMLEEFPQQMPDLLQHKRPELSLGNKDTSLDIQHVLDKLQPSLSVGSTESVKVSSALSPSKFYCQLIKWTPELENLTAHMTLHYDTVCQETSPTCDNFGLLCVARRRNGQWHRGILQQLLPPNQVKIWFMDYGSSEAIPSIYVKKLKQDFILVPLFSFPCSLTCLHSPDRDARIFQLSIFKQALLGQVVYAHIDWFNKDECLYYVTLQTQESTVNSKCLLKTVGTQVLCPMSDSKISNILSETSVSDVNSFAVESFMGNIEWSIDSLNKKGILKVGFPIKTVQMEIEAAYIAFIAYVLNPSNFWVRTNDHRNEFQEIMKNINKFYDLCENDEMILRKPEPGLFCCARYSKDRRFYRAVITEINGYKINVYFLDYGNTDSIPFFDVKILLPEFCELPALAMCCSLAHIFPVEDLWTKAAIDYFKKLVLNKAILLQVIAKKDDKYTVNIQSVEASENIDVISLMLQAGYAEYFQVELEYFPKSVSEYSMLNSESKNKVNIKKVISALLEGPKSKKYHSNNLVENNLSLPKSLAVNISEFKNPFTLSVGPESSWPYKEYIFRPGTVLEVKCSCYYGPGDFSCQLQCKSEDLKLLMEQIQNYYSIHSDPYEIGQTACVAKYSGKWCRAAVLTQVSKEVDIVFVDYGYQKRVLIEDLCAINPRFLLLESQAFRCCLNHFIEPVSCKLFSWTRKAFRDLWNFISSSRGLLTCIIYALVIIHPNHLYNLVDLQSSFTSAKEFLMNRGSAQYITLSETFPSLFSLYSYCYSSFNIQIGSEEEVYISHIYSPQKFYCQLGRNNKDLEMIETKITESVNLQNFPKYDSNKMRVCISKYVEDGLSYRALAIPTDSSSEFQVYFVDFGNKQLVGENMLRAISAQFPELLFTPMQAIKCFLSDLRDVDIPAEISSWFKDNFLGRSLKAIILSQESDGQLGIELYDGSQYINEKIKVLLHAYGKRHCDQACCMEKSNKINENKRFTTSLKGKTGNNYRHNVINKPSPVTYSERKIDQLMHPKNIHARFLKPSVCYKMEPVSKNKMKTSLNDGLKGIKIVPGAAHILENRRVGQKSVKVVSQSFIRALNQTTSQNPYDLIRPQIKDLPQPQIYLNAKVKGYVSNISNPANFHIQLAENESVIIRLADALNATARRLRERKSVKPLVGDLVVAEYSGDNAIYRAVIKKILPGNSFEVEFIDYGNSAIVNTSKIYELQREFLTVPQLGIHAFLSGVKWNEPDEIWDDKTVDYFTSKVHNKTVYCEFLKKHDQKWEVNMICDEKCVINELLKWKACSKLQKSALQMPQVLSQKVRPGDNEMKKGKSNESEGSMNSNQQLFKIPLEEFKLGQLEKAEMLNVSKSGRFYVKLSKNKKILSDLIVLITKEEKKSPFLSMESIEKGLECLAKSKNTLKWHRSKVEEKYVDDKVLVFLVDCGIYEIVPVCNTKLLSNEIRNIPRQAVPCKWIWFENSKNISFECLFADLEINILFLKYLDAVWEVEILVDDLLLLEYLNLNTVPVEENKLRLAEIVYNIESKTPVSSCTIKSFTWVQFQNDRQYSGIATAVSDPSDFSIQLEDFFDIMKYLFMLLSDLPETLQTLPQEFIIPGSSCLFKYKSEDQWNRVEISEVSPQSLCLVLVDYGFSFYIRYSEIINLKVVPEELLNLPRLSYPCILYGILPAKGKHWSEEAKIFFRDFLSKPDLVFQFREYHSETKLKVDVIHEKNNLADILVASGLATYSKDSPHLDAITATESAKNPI
UniProt Q66K14, whole entry, looked up: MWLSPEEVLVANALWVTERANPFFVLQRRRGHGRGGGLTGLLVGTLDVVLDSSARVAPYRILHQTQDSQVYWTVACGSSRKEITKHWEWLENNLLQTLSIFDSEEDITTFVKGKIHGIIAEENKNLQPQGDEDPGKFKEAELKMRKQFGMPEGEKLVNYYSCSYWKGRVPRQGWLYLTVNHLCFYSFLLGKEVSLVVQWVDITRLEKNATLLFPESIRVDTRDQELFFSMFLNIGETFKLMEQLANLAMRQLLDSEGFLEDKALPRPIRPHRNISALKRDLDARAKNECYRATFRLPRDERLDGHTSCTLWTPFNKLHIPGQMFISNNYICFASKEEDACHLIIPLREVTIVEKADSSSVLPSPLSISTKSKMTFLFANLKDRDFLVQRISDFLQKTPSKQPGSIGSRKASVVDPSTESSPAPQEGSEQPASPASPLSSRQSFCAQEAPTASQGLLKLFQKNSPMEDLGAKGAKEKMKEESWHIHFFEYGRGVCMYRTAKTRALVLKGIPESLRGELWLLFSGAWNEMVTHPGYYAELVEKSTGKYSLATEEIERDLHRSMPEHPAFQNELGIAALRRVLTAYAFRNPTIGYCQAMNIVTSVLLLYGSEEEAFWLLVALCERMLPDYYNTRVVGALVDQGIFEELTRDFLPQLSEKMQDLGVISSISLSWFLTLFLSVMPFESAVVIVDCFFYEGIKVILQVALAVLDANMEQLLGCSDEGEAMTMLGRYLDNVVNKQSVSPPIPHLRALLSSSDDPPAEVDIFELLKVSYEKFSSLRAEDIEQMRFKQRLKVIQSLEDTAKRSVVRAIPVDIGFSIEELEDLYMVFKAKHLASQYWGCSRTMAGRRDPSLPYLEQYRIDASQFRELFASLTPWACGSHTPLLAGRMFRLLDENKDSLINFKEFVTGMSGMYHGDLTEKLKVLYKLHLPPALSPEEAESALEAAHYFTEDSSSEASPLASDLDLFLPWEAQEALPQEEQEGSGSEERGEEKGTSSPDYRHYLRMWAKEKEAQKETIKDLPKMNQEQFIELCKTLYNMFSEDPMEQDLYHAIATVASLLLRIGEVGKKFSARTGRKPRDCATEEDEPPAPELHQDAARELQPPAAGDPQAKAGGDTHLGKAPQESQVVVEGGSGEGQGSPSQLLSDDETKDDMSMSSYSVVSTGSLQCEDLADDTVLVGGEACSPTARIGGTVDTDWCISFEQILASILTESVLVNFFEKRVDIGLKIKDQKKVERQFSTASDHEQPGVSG
UniProt P37802: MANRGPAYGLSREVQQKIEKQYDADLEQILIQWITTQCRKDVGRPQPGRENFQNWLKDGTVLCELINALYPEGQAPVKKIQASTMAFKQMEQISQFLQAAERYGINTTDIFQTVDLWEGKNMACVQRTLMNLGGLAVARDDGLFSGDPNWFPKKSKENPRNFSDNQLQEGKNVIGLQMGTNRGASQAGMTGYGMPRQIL
UniProt Q0IIM8: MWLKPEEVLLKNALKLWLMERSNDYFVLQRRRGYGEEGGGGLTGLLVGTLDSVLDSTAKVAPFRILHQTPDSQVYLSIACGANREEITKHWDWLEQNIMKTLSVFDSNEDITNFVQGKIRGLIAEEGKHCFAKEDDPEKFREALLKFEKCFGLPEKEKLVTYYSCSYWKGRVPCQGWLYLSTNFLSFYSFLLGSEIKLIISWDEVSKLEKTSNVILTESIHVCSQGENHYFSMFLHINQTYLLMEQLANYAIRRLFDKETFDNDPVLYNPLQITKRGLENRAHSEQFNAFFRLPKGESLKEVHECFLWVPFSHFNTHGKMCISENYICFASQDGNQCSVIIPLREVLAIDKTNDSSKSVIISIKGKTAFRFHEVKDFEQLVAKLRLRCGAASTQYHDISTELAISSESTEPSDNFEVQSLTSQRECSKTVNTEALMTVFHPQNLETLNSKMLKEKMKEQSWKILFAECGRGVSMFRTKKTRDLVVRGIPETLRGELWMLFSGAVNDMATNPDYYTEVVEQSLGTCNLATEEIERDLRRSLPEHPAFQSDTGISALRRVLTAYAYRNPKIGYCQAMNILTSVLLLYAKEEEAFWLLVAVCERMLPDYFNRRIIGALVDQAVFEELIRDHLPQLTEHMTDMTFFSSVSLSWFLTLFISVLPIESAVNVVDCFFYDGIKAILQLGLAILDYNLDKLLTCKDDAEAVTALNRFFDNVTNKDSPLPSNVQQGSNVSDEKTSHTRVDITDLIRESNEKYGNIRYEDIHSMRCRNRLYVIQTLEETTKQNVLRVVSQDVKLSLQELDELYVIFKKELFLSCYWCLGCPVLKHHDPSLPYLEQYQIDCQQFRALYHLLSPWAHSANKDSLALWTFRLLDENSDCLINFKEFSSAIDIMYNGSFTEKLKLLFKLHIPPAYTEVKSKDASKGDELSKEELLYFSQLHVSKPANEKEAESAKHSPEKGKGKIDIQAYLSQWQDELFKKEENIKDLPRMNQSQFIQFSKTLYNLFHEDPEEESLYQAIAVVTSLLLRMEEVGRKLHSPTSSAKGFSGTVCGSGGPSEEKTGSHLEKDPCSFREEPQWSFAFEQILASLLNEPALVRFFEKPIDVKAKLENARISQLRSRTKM

The other results are listed elsewhere or left out.

Assay in all cases: log2 fold change, soluble protein after heating vs DMSO (PISA); higher = thermal stabilisation; K562 lysate, 10 uM; active = over 0.2 and 3.5 SD of the protein, either way, in both replicates (recomputed)
Compound in assay [1]: NCC(=O)Nc1ccc(-n2nc(C(F)(F)F)cc2-c2ccc3c(ccc4ccccc43)c2)cc1
The procedure, abridged:
(§1)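 Log-two fold change in thermal stability relative to solvent controls is reported from duplicates. For each sample, crude K562 extract from dounce-homogenised pellets in PBS pH 7.4 with 1 mM MgCl2, at 1 mg/mL protein, was treated with 10 μM compound for 30 min. Aliquots heated for 3 min across 48°C-58°C were pooled, brought to 0.5% NP-40 at 4°C and cleared at 21,000xg for 90 min. The supernatant was quantified by TMTpro 16plex LC-MS/MS with channel sums equalised.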

Compound in a further assay: O=C(CCCCCCC(=O)Nc1ccccc1)NO [vorinostat]
The method in brief: as §1

Compound in another assay: O=C(O)c1ccc2c(c1)nc(Nc1cccc(Cl)c1)c1ccncc12 [silmitasertib]
The method in brief: as §1

Compound in assay [2]: O=C1NC(=O)C(c2cnc3ccccn23)=C1c1cn2c3c(cc(F)cc13)CN(C(=O)N1CCCCC1)CC2
The procedure, abridged: as §1

Compound in a further assay: c1cn2cc(-c3ccc4cn[nH]c4c3)nc(Nc3ccc(N4CCOCC4)cc3)c2n1 [entospletinib]
The procedure, abridged:
as §1

Consider TCF25 (UniProt Q9BQ70), for which the log2 fold change in assay [1] is inactive: -0.183; in the assay with vorinostat, inactive: -0.121; with silmitasertib it was inactive: 0.036; in assay [2], inactive: -0.051; in the assay with entospletinib, inactive: -0.048.
The corresponding values for TBC1D17 (UniProt Q9HA65) are inactive: -0.141, inactive: -0.055, inactive: -0.012, inactive: -0.06 and inactive: -0.027.
For TERF2IP (UniProt Q9NYB0), the log2 fold change is inactive: 0.038 in assay [1]; inactive: 0.072 with vorinostat; inactive: 0.008 with silmitasertib; inactive: 0.011 in assay [2]; inactive: 0.011 with entospletinib.
For TBL3 (UniProt Q12788), the log2 fold change in assay [1] was inactive: 0.015; with vorinostat, active: -0.263; in the assay with silmitasertib, inactive: -0.011; in assay [2], inactive: -0.001; in the assay with entospletinib, inactive: -0.023.
As for TAF9B (UniProt Q9HBM6), the log2 fold change in assay [1] is inactive: -0.204; with vorinostat it was inactive: -0.158; in the assay with silmitasertib, inactive: -0.025; in assay [2], inactive: 0.011; in the assay with entospletinib, inactive: 0.101.
For the target TARS1 (UniProt P26639), the log2 fold change is inactive: 0.004 in assay [1]; inactive: 0.049 with vorinostat; inactive: 0.011 in the assay with silmitasertib; inactive: -0.009 in assay [2]; inactive: 0.013 with entospletinib.
The corresponding values for TEX264 (UniProt Q9Y6I9) are inactive: -0.041, inactive: 0.259, inactive: 0.016, inactive: -0.075 and inactive: 0.324.
As for TDP2 isoform 2 (UniProt O95551), the log2 fold change in assay [1] was inactive: 0.003; in the assay with vorinostat it was inactive: -0.1; with silmitasertib, inactive: 0; in assay [2], inactive: -0.015; with entospletinib, inactive: 0.012.
For TES (UniProt Q9UGI8), the log2 fold change in assay [1] is inactive: 0.013; with vorinostat, inactive: 0.033; in the assay with silmitasertib, inactive: -0.004; in assay [2] it was inactive: 0.026; with entospletinib, inactive: -0.003.
The corresponding values for TAL1 (UniProt P17542) are inactive: 0.023, inactive: 0.021, inactive: 0.001, inactive: 0.015 and inactive: -0.011.
As to TANGO6 (UniProt Q9C0B7), the log2 fold change in assay [1] was inactive: 0.007; with vorinostat, active: -0.389; with silmitasertib, inactive: 0.019; in assay [2], inactive: -0.037; with entospletinib, inactive: -0.009.
Take TAOK3 (UniProt Q9H2K8): the log2 fold change is inactive: 0.061 in assay [1]; inactive: 0.041 with vorinostat; inactive: 0.189 in the assay with silmitasertib; inactive: -0.021 in assay [2]; inactive: -0.025 in the assay with entospletinib.
In the same order, the values of TDRD15 (UniProt B5MCY1) are inactive: 0.134, inactive: -0.182, inactive: 0.1, inactive: 0.051 and inactive: 0.032.
As to TGFB1 (UniProt P01137), the log2 fold change was inactive: -0.001 in assay [1]; inactive: 0.108 with vorinostat; inactive: -0.002 with silmitasertib; inactive: 0.012 in assay [2]; inactive: -0.037 with entospletinib.
Consider TBC1D7 (UniProt Q9P0N9), for which the log2 fold change is inactive: 0.17 in assay [1]; inactive: -0.227 with vorinostat; inactive: -0.028 in the assay with silmitasertib; inactive: 0.016 in assay [2]; inactive: -0.131 with entospletinib.
In the same order, the values of TBC1D9B isoform 2 (UniProt Q66K14) are inactive: 0.005, inactive: -0.048, inactive: -0.064, inactive: 0.031 and inactive: 0.014.
As to TAF8 isoform 2 (UniProt Q7Z7C8), the log2 fold change in assay [1] was inactive: 0.009; with vorinostat it was inactive: 0.054; with silmitasertib it was inactive: 0.04; in assay [2], inactive: -0.018; with entospletinib, inactive: -0.063.
Take TAGLN2 isoform 2 (UniProt P37802): the log2 fold change is inactive: -0.003 in assay [1]; inactive: 0.06 with vorinostat; inactive: 0.01 with silmitasertib; inactive: 0.008 in assay [2]; inactive: -0.022 in the assay with entospletinib.
In the same order, the values of TCAF2 (UniProt A6NFQ2) are inactive: 0.019, active: -0.27, inactive: 0, inactive: 0 and inactive: -0.01.
For the target TFE3 (UniProt P19532), the log2 fold change in assay [1] is inactive: -0.025; with vorinostat it was inactive: 0.021; with silmitasertib, inactive: -0.035; in assay [2] it was inactive: -0.089; with entospletinib it was inactive: -0.026.
The corresponding values for TBC1D4 (UniProt O60343) are inactive: -0.017, inactive: -0.19, inactive: -0.012, inactive: -0.017 and inactive: -0.035.
In the same order, the values of TBC1D8B (UniProt Q0IIM8) are inactive: 0.036, inactive: 0.147, inactive: -0.037, inactive: 0.011 and inactive: 0.131.
The corresponding values for TEX30 (UniProt Q5JUR7) are inactive: 0.035, active: -0.534, inactive: 0.041, inactive: -0.006 and inactive: 0.001.
Consider TANGO2 isoform 4 (UniProt Q6ICL3), for which the log2 fold change in assay [1] is inactive: -0.07; with vorinostat it was inactive: -0.112; with silmitasertib, inactive: 0.027; in assay [2] it was inactive: -0.019; with entospletinib, inactive: -0.045.
